PubChem BioAssay AID743121, NCATS, 2013
In all, the deposit lists about 26,000 reagents; this is a random part of them. 167 of all reagents (0.63%) were called active. 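Calls are per gene from RSA p-values that are not deposited; an individual active-marked siRNA can sensitise only weakly.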 The numbers tell different reagents against one gene apart. Further read-outs or replicates are left out here.

Test: 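Genes whose silencing strengthens cell killing by camptothecin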 (primary screen)
System: MDA-MB-231 cells, a human breast cancer line
Knock-down reagent: single siRNA against human genes, 20 nM siRNA (0.8 pmol per well)
Timing: 120 h (drug added 48 h after transfection, read 72 h later)
Challenge: camptothecin 20 nM (about EC30) for 72 h; vehicle 0.1% DMSO in parallel plates
Detection: 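CellTiter-Glo ATP signal, scaled to control siRNA as percent viability; sensitisation given as log2 of untreated divided by camptothecin-treated viability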
Scale: log2 vehicle/camptothecin viability: higher = stronger sensitisation to camptothecin
Active means: 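Active genes have an RSA gene-level p-value below 0.001, computed from the ratios of their separate siRNAs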

log2 vehicle/camptothecin viability, by target gene and reagent
CENPBD1P: #1 -0.308 inactive; #2 -0.478 inactive; #3 -0.533 inactive; #4 0.00581 inactive
POSTN: #1 -0.189 inactive; #2 -0.675 inactive; #3 0.448 inactive; #4 -0.214 inactive
TRPC6: #1 -0.161 inactive; #2 0.643 inactive; #3 -0.0236 inactive
KCNH1: #1 0.966 inactive; #2 -0.348 inactive; #3 0.232 inactive; #4 0.22 inactive
GSTO1: #1 -0.0254 inactive; #2 0.17 inactive; #3 -0.0318 inactive
IL20RB: #1 -0.0828 inactive; #2 0.137 inactive; #3 0.501 inactive; #4 -0.463 inactive
TNNT2: #1 -0.24 inactive; #2 -0.249 inactive; #3 -0.132 inactive
DGKA: #1 -0.512 inactive; #2 0.579 inactive; #3 -0.315 inactive; #4 -0.247 inactive
RDX: #1 0.531 inactive; #2 -0.547 inactive; #3 -0.03 inactive; #4 -0.154 inactive
ZNF875: #1 -0.194 inactive; #2 -0.178 inactive; #3 0.0455 inactive; #4 -0.163 inactive
FUCA2: #1 -0.155 inactive; #2 -0.211 inactive; #3 -0.103 inactive; #4 0.248 inactive
GPR135: #1 -0.133 inactive; #2 -0.344 inactive; #3 -0.164 inactive; #4 -0.334 inactive
IFT54: #1 -0.355 inactive; #2 -0.312 inactive; #3 -0.283 inactive
MRPS17: #1 -0.432 inactive; #2 -0.271 inactive; #3 -0.0443 inactive; #4 0.0397 inactive
DTX4: #1 0.434 inactive; #2 -0.36 inactive; #3 0.0903 inactive; #4 0.938 inactive
PDE10A: #1 -0.222 inactive; #2 -0.159 inactive; #3 -0.452 inactive; #4 -0.27 inactive
C1RL: #1 -0.00815 inactive; #2 -0.223 inactive; #3 -0.186 inactive; #4 -0.0618 inactive
CASR: #1 -0.0648 inactive; #2 -0.135 inactive; #3 1.23 inactive; #4 -0.086 inactive

Reformatted: entries from further up.
| target gene | reagent | log2 vehicle/camptothecin viability | activity call |
| --- | --- | --- | --- |
| PDE10A | 3 | -0.452 | inactive |
| PDE10A | 4 | -0.27 | inactive |
| C1RL | 1 | -0.00815 | inactive |
| C1RL | 2 | -0.223 | inactive |
